Results from the supplement of paper PMC10849652.
Some of the results follow.

Sequences of proteins named here, by UniProt entry; tags and fusion partners are left off. A change or cut given only in a name is not applied to a line headed by its entry.
UniProt P57081: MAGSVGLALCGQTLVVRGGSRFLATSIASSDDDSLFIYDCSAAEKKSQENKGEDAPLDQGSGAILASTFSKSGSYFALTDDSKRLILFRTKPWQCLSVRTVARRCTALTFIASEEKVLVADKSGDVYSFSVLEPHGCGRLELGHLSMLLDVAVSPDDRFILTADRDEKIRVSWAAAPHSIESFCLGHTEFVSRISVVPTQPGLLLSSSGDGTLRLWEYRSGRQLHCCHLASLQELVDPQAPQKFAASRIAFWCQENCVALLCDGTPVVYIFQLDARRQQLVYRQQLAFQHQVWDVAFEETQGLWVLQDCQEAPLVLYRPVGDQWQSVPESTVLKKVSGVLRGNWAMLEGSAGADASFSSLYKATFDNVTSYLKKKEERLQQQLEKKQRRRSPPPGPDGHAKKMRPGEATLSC
UniProt Q69YN4: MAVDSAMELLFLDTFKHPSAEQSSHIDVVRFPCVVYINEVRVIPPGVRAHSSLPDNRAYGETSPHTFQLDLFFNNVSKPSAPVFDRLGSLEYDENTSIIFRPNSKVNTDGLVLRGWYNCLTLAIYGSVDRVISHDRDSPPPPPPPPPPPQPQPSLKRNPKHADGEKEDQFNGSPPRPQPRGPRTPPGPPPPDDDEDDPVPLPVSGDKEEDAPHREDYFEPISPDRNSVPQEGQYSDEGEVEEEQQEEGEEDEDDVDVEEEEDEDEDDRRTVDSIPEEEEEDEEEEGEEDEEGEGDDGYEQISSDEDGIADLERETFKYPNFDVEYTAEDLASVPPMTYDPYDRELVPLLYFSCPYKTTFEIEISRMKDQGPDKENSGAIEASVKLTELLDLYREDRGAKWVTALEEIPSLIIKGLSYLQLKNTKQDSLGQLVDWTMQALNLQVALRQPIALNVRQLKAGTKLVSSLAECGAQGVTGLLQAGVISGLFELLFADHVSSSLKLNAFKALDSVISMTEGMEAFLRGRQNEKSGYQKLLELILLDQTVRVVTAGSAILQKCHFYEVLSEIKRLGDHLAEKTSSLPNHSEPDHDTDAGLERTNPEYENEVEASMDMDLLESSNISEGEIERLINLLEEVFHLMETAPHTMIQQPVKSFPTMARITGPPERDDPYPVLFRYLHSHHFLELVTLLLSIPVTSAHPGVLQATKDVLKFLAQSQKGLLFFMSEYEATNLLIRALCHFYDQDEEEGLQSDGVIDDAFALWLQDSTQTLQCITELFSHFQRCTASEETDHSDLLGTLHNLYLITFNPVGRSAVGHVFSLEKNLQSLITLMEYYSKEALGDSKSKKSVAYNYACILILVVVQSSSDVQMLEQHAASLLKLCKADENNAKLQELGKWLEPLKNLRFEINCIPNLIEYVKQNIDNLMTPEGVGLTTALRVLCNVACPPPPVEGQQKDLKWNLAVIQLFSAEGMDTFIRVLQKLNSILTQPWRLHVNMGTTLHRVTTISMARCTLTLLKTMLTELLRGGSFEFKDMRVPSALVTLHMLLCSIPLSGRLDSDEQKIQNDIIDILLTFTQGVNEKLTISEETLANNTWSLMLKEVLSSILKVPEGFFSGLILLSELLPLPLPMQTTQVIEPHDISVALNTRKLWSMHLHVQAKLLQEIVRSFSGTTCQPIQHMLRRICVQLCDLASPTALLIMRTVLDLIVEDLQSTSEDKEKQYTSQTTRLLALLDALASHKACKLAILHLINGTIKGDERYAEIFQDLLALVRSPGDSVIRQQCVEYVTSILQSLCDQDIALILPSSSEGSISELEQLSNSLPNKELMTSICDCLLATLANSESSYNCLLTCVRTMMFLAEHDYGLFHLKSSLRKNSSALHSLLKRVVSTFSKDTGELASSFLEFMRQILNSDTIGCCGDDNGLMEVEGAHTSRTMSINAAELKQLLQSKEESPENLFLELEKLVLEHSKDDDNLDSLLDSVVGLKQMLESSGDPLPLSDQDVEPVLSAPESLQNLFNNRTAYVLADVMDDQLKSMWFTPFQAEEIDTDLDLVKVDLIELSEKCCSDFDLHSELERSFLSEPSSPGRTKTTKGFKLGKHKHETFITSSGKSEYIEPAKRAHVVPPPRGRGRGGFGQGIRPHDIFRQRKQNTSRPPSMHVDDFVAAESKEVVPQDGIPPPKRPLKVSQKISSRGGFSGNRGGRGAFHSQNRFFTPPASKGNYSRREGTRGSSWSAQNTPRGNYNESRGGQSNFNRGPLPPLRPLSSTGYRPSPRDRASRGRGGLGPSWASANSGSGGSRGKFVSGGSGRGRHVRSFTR
UniProt Q502W6: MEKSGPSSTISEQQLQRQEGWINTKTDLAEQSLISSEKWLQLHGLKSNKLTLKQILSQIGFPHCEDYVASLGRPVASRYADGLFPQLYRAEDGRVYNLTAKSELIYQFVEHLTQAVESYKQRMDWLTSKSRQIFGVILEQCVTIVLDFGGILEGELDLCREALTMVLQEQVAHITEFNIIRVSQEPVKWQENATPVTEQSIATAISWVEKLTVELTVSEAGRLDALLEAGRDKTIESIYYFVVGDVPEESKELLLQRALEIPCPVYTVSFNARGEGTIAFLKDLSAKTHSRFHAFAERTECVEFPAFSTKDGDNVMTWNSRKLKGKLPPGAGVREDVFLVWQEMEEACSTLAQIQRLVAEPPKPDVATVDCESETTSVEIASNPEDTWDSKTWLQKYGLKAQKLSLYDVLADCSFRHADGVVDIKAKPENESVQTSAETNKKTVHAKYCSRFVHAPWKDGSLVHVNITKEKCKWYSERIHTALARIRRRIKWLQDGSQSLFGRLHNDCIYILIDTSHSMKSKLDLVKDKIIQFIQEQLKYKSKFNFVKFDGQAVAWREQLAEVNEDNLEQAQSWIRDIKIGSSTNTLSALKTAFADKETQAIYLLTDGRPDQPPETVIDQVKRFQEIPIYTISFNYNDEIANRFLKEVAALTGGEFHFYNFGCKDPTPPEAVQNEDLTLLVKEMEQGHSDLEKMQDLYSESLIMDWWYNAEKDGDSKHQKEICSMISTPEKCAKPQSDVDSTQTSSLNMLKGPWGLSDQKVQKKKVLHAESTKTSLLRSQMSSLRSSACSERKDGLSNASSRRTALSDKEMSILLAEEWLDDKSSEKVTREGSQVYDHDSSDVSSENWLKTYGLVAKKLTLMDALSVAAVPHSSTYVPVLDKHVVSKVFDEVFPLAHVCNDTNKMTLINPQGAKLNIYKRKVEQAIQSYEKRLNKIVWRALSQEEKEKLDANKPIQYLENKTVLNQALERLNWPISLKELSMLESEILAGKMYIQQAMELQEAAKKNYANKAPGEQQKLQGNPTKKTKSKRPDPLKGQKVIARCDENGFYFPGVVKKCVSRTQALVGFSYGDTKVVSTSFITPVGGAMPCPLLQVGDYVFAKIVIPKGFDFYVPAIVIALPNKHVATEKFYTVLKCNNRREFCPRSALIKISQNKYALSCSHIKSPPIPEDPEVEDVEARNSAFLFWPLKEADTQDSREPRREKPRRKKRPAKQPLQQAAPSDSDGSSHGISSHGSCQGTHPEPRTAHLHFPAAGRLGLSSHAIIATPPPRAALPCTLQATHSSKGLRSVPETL
UniProt Q8IWA0: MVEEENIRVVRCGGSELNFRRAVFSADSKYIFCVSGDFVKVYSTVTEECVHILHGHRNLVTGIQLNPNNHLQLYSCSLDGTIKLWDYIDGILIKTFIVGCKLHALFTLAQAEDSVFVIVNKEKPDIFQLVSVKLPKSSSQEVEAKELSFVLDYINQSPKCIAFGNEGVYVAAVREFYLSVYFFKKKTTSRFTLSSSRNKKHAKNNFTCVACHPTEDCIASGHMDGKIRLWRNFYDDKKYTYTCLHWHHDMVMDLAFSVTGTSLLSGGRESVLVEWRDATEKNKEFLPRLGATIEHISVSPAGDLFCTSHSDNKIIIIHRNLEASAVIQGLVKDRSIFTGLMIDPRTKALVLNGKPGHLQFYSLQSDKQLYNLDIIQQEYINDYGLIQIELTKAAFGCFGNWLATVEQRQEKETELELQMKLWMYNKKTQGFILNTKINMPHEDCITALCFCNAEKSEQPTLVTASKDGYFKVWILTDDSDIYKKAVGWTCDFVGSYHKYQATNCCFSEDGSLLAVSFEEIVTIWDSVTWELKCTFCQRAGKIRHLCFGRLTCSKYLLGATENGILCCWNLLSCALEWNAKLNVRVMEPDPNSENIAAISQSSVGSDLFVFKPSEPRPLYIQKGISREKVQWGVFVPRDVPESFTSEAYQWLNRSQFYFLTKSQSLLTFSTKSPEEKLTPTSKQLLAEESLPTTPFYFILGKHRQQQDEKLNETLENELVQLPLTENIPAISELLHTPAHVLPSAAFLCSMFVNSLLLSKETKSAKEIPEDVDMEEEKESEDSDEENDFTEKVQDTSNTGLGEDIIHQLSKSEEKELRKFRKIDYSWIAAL
UniProt A4D1P6: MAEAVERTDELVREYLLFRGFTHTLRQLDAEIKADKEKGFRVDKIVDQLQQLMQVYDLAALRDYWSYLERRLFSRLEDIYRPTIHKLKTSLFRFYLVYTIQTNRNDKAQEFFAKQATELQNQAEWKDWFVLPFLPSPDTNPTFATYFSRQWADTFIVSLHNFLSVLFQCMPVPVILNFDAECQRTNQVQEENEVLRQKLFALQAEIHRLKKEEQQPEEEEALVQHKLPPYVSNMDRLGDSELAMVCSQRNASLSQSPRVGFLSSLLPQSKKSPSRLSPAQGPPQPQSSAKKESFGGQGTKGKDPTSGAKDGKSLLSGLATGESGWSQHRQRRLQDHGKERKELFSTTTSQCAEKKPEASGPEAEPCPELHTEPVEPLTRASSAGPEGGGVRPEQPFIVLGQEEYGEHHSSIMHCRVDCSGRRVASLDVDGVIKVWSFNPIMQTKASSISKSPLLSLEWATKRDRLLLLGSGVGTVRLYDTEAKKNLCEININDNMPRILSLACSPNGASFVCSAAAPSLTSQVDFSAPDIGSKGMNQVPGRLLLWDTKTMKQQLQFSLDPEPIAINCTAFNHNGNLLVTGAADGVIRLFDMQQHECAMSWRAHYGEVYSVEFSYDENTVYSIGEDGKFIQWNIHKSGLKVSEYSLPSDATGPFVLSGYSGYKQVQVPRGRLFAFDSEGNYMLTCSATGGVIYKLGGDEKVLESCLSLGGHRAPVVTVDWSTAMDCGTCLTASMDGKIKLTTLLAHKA
UniProt Q92558: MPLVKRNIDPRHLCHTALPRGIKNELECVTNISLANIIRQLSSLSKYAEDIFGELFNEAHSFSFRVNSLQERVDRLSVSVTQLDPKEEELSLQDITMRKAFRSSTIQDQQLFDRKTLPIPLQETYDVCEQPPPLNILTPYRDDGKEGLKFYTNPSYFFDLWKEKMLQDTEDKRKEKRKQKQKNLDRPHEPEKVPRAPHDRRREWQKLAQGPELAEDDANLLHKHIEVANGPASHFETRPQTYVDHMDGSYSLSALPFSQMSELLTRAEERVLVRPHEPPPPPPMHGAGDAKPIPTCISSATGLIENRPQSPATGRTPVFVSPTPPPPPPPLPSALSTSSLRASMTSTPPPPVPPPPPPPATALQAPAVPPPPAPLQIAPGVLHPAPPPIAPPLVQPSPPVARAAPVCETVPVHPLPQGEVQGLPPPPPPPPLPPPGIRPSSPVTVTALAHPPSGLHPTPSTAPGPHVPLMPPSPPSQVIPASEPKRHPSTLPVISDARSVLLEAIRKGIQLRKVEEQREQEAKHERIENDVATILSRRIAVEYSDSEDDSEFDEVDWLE
UniProt O00308: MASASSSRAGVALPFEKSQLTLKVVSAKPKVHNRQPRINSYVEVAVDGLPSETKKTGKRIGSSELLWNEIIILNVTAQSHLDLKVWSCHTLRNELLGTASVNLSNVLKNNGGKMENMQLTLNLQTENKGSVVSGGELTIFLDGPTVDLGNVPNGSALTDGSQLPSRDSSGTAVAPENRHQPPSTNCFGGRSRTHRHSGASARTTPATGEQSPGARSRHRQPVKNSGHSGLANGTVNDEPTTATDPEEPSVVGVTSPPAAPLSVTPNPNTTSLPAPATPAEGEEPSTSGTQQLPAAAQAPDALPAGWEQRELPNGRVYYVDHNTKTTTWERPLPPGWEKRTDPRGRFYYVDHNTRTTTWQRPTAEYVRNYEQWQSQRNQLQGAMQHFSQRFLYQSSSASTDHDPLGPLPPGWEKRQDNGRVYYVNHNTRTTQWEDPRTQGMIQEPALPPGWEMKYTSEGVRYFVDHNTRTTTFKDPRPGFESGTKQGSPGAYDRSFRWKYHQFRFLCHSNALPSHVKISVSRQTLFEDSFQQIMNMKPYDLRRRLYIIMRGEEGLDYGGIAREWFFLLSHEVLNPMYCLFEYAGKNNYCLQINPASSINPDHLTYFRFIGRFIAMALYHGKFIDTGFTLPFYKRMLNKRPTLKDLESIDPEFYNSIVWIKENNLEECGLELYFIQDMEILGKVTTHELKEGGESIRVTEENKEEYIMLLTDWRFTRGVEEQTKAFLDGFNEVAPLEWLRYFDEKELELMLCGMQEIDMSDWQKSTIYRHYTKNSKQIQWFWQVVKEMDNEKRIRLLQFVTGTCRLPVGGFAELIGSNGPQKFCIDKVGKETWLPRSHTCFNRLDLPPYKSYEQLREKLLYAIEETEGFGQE

Compound: CC1=C(C=C(C=C1)NC(=O)C2=CC(=CC=C2)C(C)(C)C#N)NC3=CC4=C(C=C3)N=CN(C4=O)C
Test: log2 fold change, soluble protein after heating vs DMSO (PISA); higher = thermal stabilisation; K562 cells, 10 uM, 30 min; active = over 0.2 and 3.5 SD of the protein, either way, in both replicates (recomputed)
Outline: (§1)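 Soluble protein was quantified by TMTpro 16plex LC-MS/MS after channel sums were equalised. It was obtained as the supernatant after 21,000xg for 90 min from pooled aliquots of K562 cells (2×10^6 cells/mL, 10 μM compound, 30 min) heated for 3 min across 48°C-58°C and extracted in PBS with 0.5% NP-40 at 4°C. Thermal stability values are relative to control samples and come from duplicates. They are given as log2 fold changes.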

| Target | log2 fold change |
| --- | --- |
| WDR4 isoform 3 (UniProt P57081) | inactive: -0.041 |
| WARS1 (UniProt G3V3P2) | inactive: -0.055 |
| WARS1 (UniProt G3V5U1) | inactive: -0.795 |
| WARS1 (UniProt G3V277) | inactive: 0.02 |
| VLDLR (UniProt P98155) | inactive: -0.108 |

Compound: CC1=C(C=C(C=C1)NC(=O)C2=CC(=CC=C2)N(C)C)NC(=O)C3=CC=C(C=C3)O
Test: as above
Outline: as §1

| Target | log2 fold change |
| --- | --- |
| VPS13A isoform 4 (UniProt Q96RL7) | inactive: -0.048 |
| VIRMA (UniProt Q69YN4) | inactive: -0.017 |
| VWA3B isoform 6 (UniProt Q502W6) | inactive: 0.104 |
| WDR75 (UniProt Q8IWA0) | inactive: 0.007 |
| WDR19 (UniProt Q8NEZ3) | inactive: -0.016 |
| VEGFA (UniProt H0YBI8) | inactive: 0.017 |
| WDR91 (UniProt A4D1P6) | inactive: -0.024 |
| WASF1 (UniProt Q92558) | inactive: -0.007 |
| VDAC2 (UniProt Q5JSD1) | inactive: 0.065 |
| XAB2 (UniProt Q9HCS7) | inactive: -0.027 |

Compound: CC1=CC=C(C=C1)SC2=C3C=C(SC3=CN=C2)C(=O)N
Test: as above
Outline: as §1

| Target | log2 fold change |
| --- | --- |
| VPS13A isoform 4 (UniProt Q96RL7) | inactive: 0.067 |
| VPS35, A0A1W2PP10 | inactive: -0.098 |
| VGF (UniProt O15240) | inactive: -0.301 |
| VWA3B isoform 6 (UniProt Q502W6) | inactive: 0.072 |
| VMA21 isoform 2 (UniProt Q3ZAQ7) | inactive: 0.166 |
| WDR75 (UniProt Q8IWA0) | inactive: 0.043 |
| WDR76 (UniProt Q9H967) | inactive: 0.009 |
| WDR19 (UniProt Q8NEZ3) | inactive: 0.107 |
| VEGFA (UniProt H0YBI8) | inactive: -0.065 |
| WDR91 (UniProt A4D1P6) | inactive: -0.033 |
| WASF1 (UniProt Q92558) | inactive: 0.03 |
| VPS37C (UniProt A5D8V6) | inactive: -0.035 |
| VDAC2 (UniProt Q5JSD1) | inactive: -0.086 |
| WIPI2 isoform 6 (UniProt Q9Y4P8) | inactive: -0.013 |
| WAC (UniProt Q9BTA9) | inactive: 0.05 |

Compound: CC1=NC(=CC=C1)C2=C(N=C(N2)C(C)(C)C)C3=CC4=NC=CN=C4C=C3
Test: as above
Outline: as §1

| Target | log2 fold change |
| --- | --- |
| WWP2 (UniProt O00308) | inactive: 0.164 |
| VIRMA (UniProt Q69YN4) | inactive: 0.054 |
| VPS35, A0A1W2PP10 | inactive: -0.02 |
| VWA3B isoform 6 (UniProt Q502W6) | inactive: 0 |
| VMA21 isoform 2 (UniProt Q3ZAQ7) | inactive: 0.099 |
| WDR13, A0A087X091 | inactive: -0.053 |
| WARS1 (UniProt G3V5U1) | inactive: -0.638 |
| WDR75 (UniProt Q8IWA0) | inactive: -0.053 |
| WARS1 (UniProt G3V277) | inactive: -0.043 |
| VEGFA (UniProt H0YBI8) | inactive: -0.118 |
| VWF (UniProt P04275) | inactive: 0.157 |
| WDR91 (UniProt A4D1P6) | inactive: -0.059 |
| WASF1 (UniProt Q92558) | inactive: -0.007 |
| VPS37C (UniProt A5D8V6) | inactive: -0.046 |
| WAC (UniProt Q9BTA9) | inactive: 0.034 |
| XAB2 (UniProt Q9HCS7) | inactive: -0.034 |
